# PubChem BioAssay AID652243, Drosophila RNAi Screening Center – 2013
# Aim: 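Fly genes required for human androgen receptor driven transcription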 (primary screen)
# Cells: Drosophila S2R+ cells
# Reagents: long dsRNA against Drosophila genes
# Duration: 72 h (48 h, then 24 h hormone)
# Conditions: synthetic androgen R1881 at 10 nM for 24 h
# Measurement: 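Firefly light from an androgen-responsive reporter and Renilla control light per well, raw and unnormalised, for each of two replicates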
# Reading the numbers: firefly reporter light: higher = more light from androgen-responsive reporter; Renilla control light: higher = more constitutive control signal (cell number, transfection)
# Active means: 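Across duplicate plates, a knock-down whose log firefly/Renilla ratio shifted a set fold down or up from the GFP/LacZ control mean was a hit; the downward cut appears as both 1.5 and 3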
# Meaning of the calls: active = hit: reporter lowered or raised; inactive = no hit
# The deposit covers about 24,000 reagents; this is a random part of those that have a named target and a result. In the full data, 246 (1%) are marked active. 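Plates not normalised; calls are printed but the firefly/Renilla ratio behind them is not deposited; fold cut for lowering reported inconsistently.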 The raw values are shown without normalisation. The record does not give: the amount of reagent.
Target gene,dsRNA,"firefly reporter light, replicate 1","firefly reporter light, replicate 2","Renilla control light, replicate 1","Renilla control light, replicate 2",activity call
Decay,DRSC16930,1.72e5,1.63e5,2.19e6,2.35e6,inactive
PolE1,DRSC16112,25203,31264,4.40e5,4.37e5,inactive
PolE1,DRSC27613,2.58e5,2.99e5,2.46e5,5.73e5,inactive
CG15646,DRSC19682,3.81e5,2.94e5,2.27e6,2.26e6,inactive
CG12091,DRSC08251,86052,89895,7.38e5,6.41e5,inactive
CG12091,DRSC24873,7.11e5,8.47e5,9.85e5,1.06e6,inactive
Or43a,DRSC07485,3.67e5,3.09e5,2.59e6,1.71e6,inactive
Dhx15,DRSC06036,1.47e6,1.12e6,1.95e6,1.68e6,inactive
Dhx15,DRSC30094,9.50e5,9.03e5,1.19e6,1.09e6,inactive
fdl,DRSC07279,2.52e5,2.01e5,1.54e6,1.46e6,inactive
fdl,DRSC26852,2.85e5,2.95e5,5.87e5,4.73e5,inactive
Hdc,DRSC07439,9.71e5,8.39e5,1.27e6,1.28e6,inactive
Hdc,DRSC25907,4.39e5,4.59e5,1.16e6,9.79e5,inactive
bumpel,DRSC16100,1.21e5,1.44e5,2.28e6,2.71e6,inactive
CG4950,DRSC10463,1.69e5,1.73e5,2.13e6,1.98e6,inactive
Obp50a,DRSC22152,6.85e5,6.75e5,3.23e6,2.54e6,inactive
Obp50a,DRSC28404,4.40e5,5.01e5,7.17e5,1.04e6,inactive
UbcE2H,DRSC18221,1.33e5,67756,5.75e5,3.99e5,inactive
UbcE2H,DRSC27123,4.22e5,4.41e5,7.55e5,5.44e5,inactive
Idua,DRSC02941,1.14e6,6.38e5,1.77e6,1.35e6,inactive
CG10068,DRSC12508,41357,36565,1.87e5,1.86e5,inactive
CG33278,DRSC10336,83171,72536,1.27e6,1.36e6,inactive
CG33278,DRSC26564,2.71e5,2.78e5,5.55e5,6.35e5,inactive
CG14182,DRSC10181,1.72e5,1.52e5,1.65e6,1.68e6,inactive
mth,DRSC08725,1.53e6,1.14e6,2.89e6,2.50e6,inactive
mth,DRSC39165,9.07e5,9.41e5,2.22e6,1.63e6,inactive
CG18585,DRSC02678,8.83e5,1.09e6,2.22e6,2.20e6,inactive
aay,DRSC11320,8.05e5,7.63e5,9.98e5,1.02e6,inactive
aay,DRSC36744,,,,,inactive
Smyd5,DRSC15483,2.41e5,1.95e5,3.09e6,3.14e6,inactive
CG7142,DRSC16204,1.45e5,2.69e5,1.99e6,2.38e6,inactive
CG7142,DRSC26968,4.38e5,4.34e5,6.81e5,5.74e5,inactive
Oseg1,DRSC10776,1.10e6,8.93e5,8.00e5,7.51e5,inactive
pygo,DRSC14322,91903,73656,3.91e5,2.53e5,inactive
pygo,DRSC25137,4.42e5,5.14e5,5.15e5,6.07e5,inactive
na,DRSC19639,3.11e5,3.93e5,4.20e6,4.10e6,inactive
na,DRSC29828,3.62e5,4.21e5,1.44e6,1.45e6,inactive
stet,DRSC08246,57973,95853,9.41e5,1.19e6,inactive
stet,DRSC08283,1.13e5,1.89e5,1.53e6,1.60e6,inactive
Alp5,DRSC14269,48543,47333,4.87e5,4.62e5,inactive
Alp5,DRSC29539,4.69e5,6.40e5,8.74e5,8.74e5,inactive
CG5171,DRSC02823,6.66e5,8.23e5,1.20e6,1.34e6,inactive
CG5171,DRSC28092,6.18e5,4.98e5,2.09e6,1.58e6,inactive
ThrRS,DRSC02843,8.95e5,7.81e5,1.58e6,1.73e6,inactive
CG14017,DRSC02348,58910,49547,7.85e5,6.86e5,inactive
CG3355,DRSC00598,1.09e5,1.25e5,9.70e5,8.04e5,inactive
CG33322,DRSC03204,88384,87219,6.58e5,7.05e5,inactive
Atf3,DRSC22996,8.03e5,9.67e5,1.26e6,1.61e6,inactive
Ac3,DRSC03692,5.91e5,3.31e5,1.58e6,1.10e6,inactive
Gr59b,DRSC04179,2.88e5,3.00e5,1.97e6,1.89e6,inactive
Dbp73D,DRSC11142,18014,14253,3.35e5,2.84e5,active
CG17738,DRSC15257,1.48e5,94686,2.37e6,2.16e6,inactive
CG17738,DRSC28474,3.62e5,5.08e5,1.11e6,1.57e6,inactive
Acat1,DRSC17766,72071,47003,4.74e5,3.23e5,inactive
Acat1,DRSC28395,4.01e5,9.18e5,8.20e5,1.46e6,inactive
CG17598,DRSC20636,64764,83832,5.51e5,4.99e5,inactive
CG17598,DRSC36828,,,,,inactive
CG17598,DRSC36829,,,,,inactive

Reprinted from above (7 entries):
Target gene,dsRNA,"firefly reporter light, replicate 1","firefly reporter light, replicate 2","Renilla control light, replicate 1","Renilla control light, replicate 2",activity call
CG15646,DRSC19682,3.81e5,2.94e5,2.27e6,2.26e6,inactive
CG12091,DRSC08251,86052,89895,7.38e5,6.41e5,inactive
CG12091,DRSC24873,7.11e5,8.47e5,9.85e5,1.06e6,inactive
Or43a,DRSC07485,3.67e5,3.09e5,2.59e6,1.71e6,inactive
Dhx15,DRSC06036,1.47e6,1.12e6,1.95e6,1.68e6,inactive
Dhx15,DRSC30094,9.50e5,9.03e5,1.19e6,1.09e6,inactive
fdl,DRSC07279,2.52e5,2.01e5,1.54e6,1.46e6,inactive
